Paper PMC3510033
No constants are given. Whether binding was seen depends on the method and setting.

By UniProt entry, the sequences of proteins in these tests, tags left out. Where a name states a change or a piece, a line headed by the entry shows the natural chain unless it says otherwise.
UniProt P07582: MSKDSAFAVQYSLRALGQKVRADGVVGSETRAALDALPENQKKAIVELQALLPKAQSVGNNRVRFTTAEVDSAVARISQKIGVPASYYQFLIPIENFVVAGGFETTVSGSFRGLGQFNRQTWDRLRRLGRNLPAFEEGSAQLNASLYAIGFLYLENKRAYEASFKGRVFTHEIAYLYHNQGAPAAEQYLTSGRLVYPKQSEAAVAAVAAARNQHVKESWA

How the values were obtained:
Test in all cases: SEC; size-exclusion column of the purified protein alone; elution compared with the calculated mass; both purified
[1] = molecular target: P5ΔV8^V207F (residues 48-220 of Φ6 P5 V207F, V8 protease fragment) (bacteriophage Φ6) (UniProt P07582)
[2] = molecular target: bacteriophage Φ6 lysin protein P5, wildtype (P5^wt) (bacteriophage Φ6) (UniProt P07582)
[3] = molecular target: P5ΔV8^wt (residues 48-220 of Φ6 P5, V8 protease fragment) (bacteriophage Φ6) (UniProt P07582)
[4] = molecular target: bacteriophage Φ6 lysin protein P5 with the V207F substitution (P5^V207F) (bacteriophage Φ6) (UniProt P07582)

In the case of “P5ΔV8^V207F (residues 48-220 of Φ6 P5 V207F, V8 protease fragment) (from UniProt P07582 48-220) (domain or fragment)”, the binding [1] is reported as “no binding”.
With “bacteriophage Φ6 lysin protein P5, wildtype (P5^wt) (from UniProt P07582 1-220) (enzyme)” the binding [2] was “no binding”.
“P5ΔV8^wt (residues 48-220 of Φ6 P5, V8 protease fragment) (from UniProt P07582 48-220) (domain or fragment)” was tested, and the binding [3] was “no binding”.
With “bacteriophage Φ6 lysin protein P5 with the V207F substitution (P5^V207F) (from UniProt P07582 1-220) (enzyme)” the binding [4] was “no binding”.
